Source: patent US10221225B2, “Peptides and combination of peptides and scaffolds thereof for use in immunotherapy against colorectal carcinoma (CRC) and other cancers” (immatics biotechnologies GmbH, priority 2015, dated 2019)

Test system: tumor tissue samples (CRC and other tumor types) compared to a panel of normal tissues
Experiment: Identification and label-free relative LC-MS quantitation of HLA-presented peptides (presentation profiles, over-presentation)
Design: species or system human
Settings: positive/measured samples, FIG. 1 legend (not shown)

Substance: 1 (ALIKQLFEA; listed as Homo sapiens) [compound 1]
- peptide additionally detected on prostate cancers: 1/33
